The supplement of paper PMC11006884
Only a part is listed here, and it is no random draw. This is a noisy data set.

What follows are targets tested with COC(=O)/C=C/c1ccccc1 [methyl cinnamate] (assay: log2 ratio of iodoacetamide-alkyne labeling of the cysteine site, DMSO over compound (competition); higher = stronger covalent engagement of the cysteine by the compound, active = 1 or more). Details: 500 µM; treatment time 1 h; system: HEK293T cell lysate.
Outline: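 HEK293T lysate at 2 mg/mL was treated with vehicle or electrophile (500 µM) for 1 h at ambient temperature, then labelled with iodoacetamide alkyne (1 h), clicked to sCIP-TMT reagents, pooled, digested with trypsin overnight at 37 °C, enriched on streptavidin and eluted with acid. Peptides were analysed by Orbitrap Eclipse LC-MS/MS with FAIMS and quantified in FragPipe, using duplicate channels and three replicates, with cysteines quantified in only one replicate excluded. The log2 competition ratio for each cysteine is the mean control-channel reporter intensity divided by the mean compound-channel reporter intensity.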

log2 ratio of iodoacetamide-alkyne labeling, inactive:
SIN3A C486 (UniProt Q96ST3) 0.358
KIF2C C154 (UniProt Q99661) 0.115
PAWR C173 (UniProt Q96IZ0) 0.251
MTR C1153 (UniProt Q99707) -0.042
PSMB7 C74 (UniProt Q99436) 0.139
USP28 C1058 (UniProt Q96RU2) 0.357
UniProt Q99590_C566 0.028
NACC1 C416 (UniProt Q96RE7) 0.141
RNF2 C75 (UniProt Q99496) -0.144
UniProt Q99683_C928 0.297
FNBP1 C130 (UniProt Q96RU3) 0.264
ARAP1 C774 (UniProt Q96P48) 0.769
PSMB7 C87 (UniProt Q99436) 0.0421
UniProt Q96NC0_C85 -0.132
UniProt Q96JA1_C1066 0.29
LGMN C219 (UniProt Q99538) 0.313
CNN2 C215 (UniProt Q99439) 0.241
MMS19 C599 (UniProt Q96T76) 0.238
ZNF512 C324 (UniProt Q96ME7) -0.00499
CDK5RAP2 C249 (UniProt Q96SN8) 0.406
ZNF512 C540 (UniProt Q96ME7) 0.428
DOK1 C224 (UniProt Q99704) -0.0928
POP1 C408 (UniProt Q99575) -0.0294
NCAPG C843 (UniProt Q9BPX3) 0.0619
SMG1 C2304 (UniProt Q96Q15) 0.111
LYSMD1 C32 (UniProt Q96S90) 0.158
DDX50 C242 (UniProt Q9BQ39) -0.00275
SCYL1 C210 (UniProt Q96KG9) -0.186
USP28 C203 (UniProt Q96RU2) -0.0142
XPO6 C22 (UniProt Q96QU8) -0.0263
UniProt Q9BQ75_C55 0.326
ATXN2 C852 (UniProt Q99700) 0.207
NABP2 C99 (UniProt Q9BQ15) 0.185
MYBBP1A C338 (UniProt Q9BQG0) 0.191
DOCK7 C457 (UniProt Q96N67) 0.112
HSD17B10 C58 (UniProt Q99714) 0.149
UHRF1 C762 (UniProt Q96T88) 0.0265

Not a retest: entries from further up.
log2 ratio of iodoacetamide-alkyne labeling, inactive:
SMG1 C2304 (UniProt Q96Q15) 0.111
LYSMD1 C32 (UniProt Q96S90) 0.158
